# Data published in PubChem BioAssay AID2685 (National Center for Advancing Translational Sciences (NCATS), 2010).
# The whole screen tested about 320,000 compounds, of which about 2,100 (0.66%) were called active. This list was built around the results that the source calls inconclusive (neither active nor inactive); the mix of calls is not that of the screen. The call rests on the fitted dose curve; in most records, active means well fitted inhibition curve with a large enough effect in the signal ratio, with a control signal flat (not every such curve was filed as active); inconclusive means small, poorly fitted or top-dose-only effect, or effect the other way, or a change in a side signal; inactive means flat fitted curve, though single readings scatter; the % refers to the signal ratio. A potency beside an inconclusive call is a rough fit, not a confirmed value.
# Assay: qHTS Assay for Lipid Storage Modulators in Drosophila S3 Cells
# Details: BODIPY lipid droplet fluorescence, 18-24 h, cells fed with added oleic acid; lipid storage change, negative = inhibition: at 46.1 µM (top of the series) unless noted
# In short: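 Drosophila S3 cells got compounds at several concentrations plus oleic acid (400 uM solution). Laser-scanning cytometry with 488 nm excitation read lipid droplets at 500-530 nm and cells at 575-640 nm. Percent activity was relative to 20 uM Triacsin C.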
# On the % scale 0 is the no-effect control and ±100 the full control effect; potency means the concentration at half of the fitted maximal effect.
Compound,Potency,"lipid storage change, negative = inhibition"
CCc1ccc2nc(N(CCCN(C)C)C(=O)c3ccc(S(=O)(=O)N4CCc5ccccc5C4)cc3)sc2c1,"inconclusive: 29.1 µM [falling, single point]",–
COc1ccc(-c2[nH]ncc2CN2CCCC2c2nonc2C)c(F)c1 (configuration not stated),–,inconclusive: 34.4%
O=C(NC1(C(F)(F)F)OCCO1)c1ccc(F)cc1,–,inconclusive: -32.7%
c1cnc(N2CCN(c3ccc4ccccc4n3)CC2)nc1,active: 0.651 µM,–
O=C(Nc1cccc(Cl)c1)c1ccc(=O)[nH]n1,–,inconclusive: 19.5%
N#CC(c1ccccc1)c1ccc2c(C(F)(F)F)cc(C(F)(F)F)nc2n1 (configuration not stated),"inconclusive: 4.61 µM [falling, full curve]",–
CCCc1nnc(NC(=O)CCC(=O)NCc2ccccc2OC)s1,–,inconclusive: 148%
N=c1oc2ccc(Br)cc2cc1C(=O)NC1CCCCCC1,–,inactive
O=C1NC(=O)C2(CCCc3ccccc32)N1 (configuration not stated),–,inconclusive: -5.11%
COc1ccc(-c2cc(=O)c3ccccc3[nH]2)cc1,–,inconclusive: -8.34%
CC(CCc1ccccc1)NC(=O)CCNS(=O)(=O)c1ccccc1 (configuration not stated),–,inconclusive
Cn1cc(Br)c(C(=O)N/N=C/c2cc3c(cc2Cl)OCO3)n1,"inconclusive: 6.51 µM [activator, partial curve, poor fit]",–
Cc1cc(-c2ccc(C)c(S(=O)(=O)NCC3CCN(Cc4ccccc4F)CC3)c2)on1,"inconclusive: 29.1 µM [activator, single point]",–
COC(=O)c1cn(NC(=O)/C=C/c2ccc(OC)c(OC)c2)c(=O)c2ccccc12,–,inactive
C[C@H](NC(=O)C1CCN(S(=O)(=O)c2ccccc2)CC1)C(=O)NCc1ccccn1,"inconclusive: 29.1 µM [activator, single point]",–
Cc1cc(C)c(S(=O)(=O)n2nc(C)c(Br)c2C)c(C)c1,–,inconclusive: 2.97%
CCOC(=O)c1ccccc1NC1c2ccccc2C(=O)N1c1cc(C)ccn1 (configuration not stated),"inconclusive: 0.731 µM [activator, partial curve, poor fit]",–
COc1ccc(-c2noc(Cc3ccccc3OC)n2)cc1,"inconclusive: 10.3 µM [activator, partial curve]",–
O=C(NCc1n[nH]c(=S)n1-c1ccc(Cl)c(Cl)c1)c1ccc(S(=O)(=O)N2CCOCC2)cc1,–,inconclusive: 2.89%
COC(=O)c1ccc(OC(C)C(=O)c2ccc(C)cc2)cc1 (configuration not stated),"inconclusive: 6.51 µM [activator, single point]",–
O=C(Nc1ccccc1)c1cc(S(=O)(=O)N2CCOCC2)cs1,–,inactive
COc1ccc(Br)cc1C(=O)N/N=C/c1ccc([N+](=O)[O-])cc1,–,inconclusive: -70%
CC(C)C(C)NC(=O)CN1C(=O)NC2(CCCc3ccccc32)C1=O (configuration not stated),–,inconclusive: 7.1%
Cc1ccc(S(=O)(=O)N2CCN(C(=O)c3ccc(N4CCCC4)c([N+](=O)[O-])c3)CC2)cc1,–,inconclusive: -53.8%
COc1cccc2c(C)cc(N3CCCCCC3)nc12,–,inconclusive: 4.86%
Cc1ccc(C(C(=O)NC(C)(C)C)N(C(=O)c2csnn2)c2ccccc2F)o1 (configuration not stated),"inconclusive: 0.461 µM [falling, single point]",–

Compound,Potency,"lipid storage change, negative = inhibition"
CCN1C(=O)[C@H]2[C@@H](c3ccc(C)cc3)N3C(=O)N(c4ccccc4)C(=O)[C@@]3(Cc3ccc(Cl)cc3)[C@H]2C1=O,–,inconclusive: -7.27%
CCN1CCCC1CN(Cc1cc2c(C)cc(C)cc2[nH]c1=O)C(=O)NC1CCCCC1 (configuration not stated),–,inconclusive: 27.1%
O=C(CP(=O)(c1ccccc1)c1ccccc1)N1CCOCC1,–,inconclusive: 1.63%
COc1ccc(-n2c(=S)[nH]c3sc(-c4ccccc4)cc3c2=O)c(OC)c1,–,inconclusive: -12.5%
CN(CC(=O)Nc1cccc(F)c1)C(=O)c1cccc(N2C(=O)CCC2=O)c1,–,inconclusive: -43.2%
COc1ccc(S(=O)(=O)Cc2ccc(C(=O)O)o2)cc1,–,inconclusive: -23.6%
N#CC1=C(N)Oc2nc[nH]c(=O)c2C1c1cccs1 (configuration not stated),"inconclusive: 0.13 µM [falling, full curve, poor fit]",–
COc1ccc(OC)c(CN2CCN(C(=O)CNC(=O)c3ccc(C(C)(C)C)cc3)CC2)c1,active: 1.46 µM,–
COCCn1c(SCC(=O)N2CCCCC2)nc2ccccc2c1=O,–,inconclusive: -44.6%
CCc1ccccc1Nc1nc(N)nc(CSCC(=O)c2cc(C)n(C)c2C)n1,"inconclusive: 4.11 µM [activator, partial curve]",–
COc1cc(/C=N/n2nnnc2N)ccc1OCC(N)=O,"inconclusive: 1.46 µM [activator, partial curve]",–
O=C(Nc1ccccc1C(=O)N/N=C/c1ccco1)c1ccc(F)cc1,"inconclusive: 2.59 µM [activator, full curve, poor fit]",–
O=[N+]([O-])c1ccc(Nc2ccc(Cl)cc2)nc1,–,inconclusive: 15.7%
CCCn1c(-c2cccc([N+](=O)[O-])c2)nc2c1c(=O)[nH]c(=O)n2Cc1ccccc1,–,inactive
CCn1c(=O)c(C(=O)Nc2ccccc2)c(O)c2ccccc21,"inconclusive: 29.1 µM [activator, single point]",–
NC(=O)NCCc1ccccc1,–,inconclusive: 56.4%
CC(NC(=O)CN(c1ccc(F)cc1)S(C)(=O)=O)c1ccccc1 (configuration not stated),active: 4.11 µM,–
CCOC(=O)C(CCCOc1ccc(C(C)CC)cc1)C(=O)OCC (configuration not stated),–,inconclusive: 1.83%
COc1cc(OC)cc(C(=O)O/N=C(\N)c2ccccn2)c1,–,inconclusive: 14.2%
COc1cccc(C(=O)N2CCN(C(=O)Cc3ccccc3)CC2)c1,–,inconclusive: -5.73%
CC(C)(C)n1nnnc1C(c1cccs1)N(Cc1cccnc1)Cc1ccco1 (configuration not stated),"inconclusive: 2.91 µM [activator, single point]",–
CCN(CC(=O)Nc1ccc(OC)cc1)C(=O)Cc1ccc(OC)c(S(=O)(=O)N2CCOCC2)c1,"inconclusive: 4.11 µM [activator, partial curve]",–
O=C(NC1CCCCCC1)C1CCN(S(=O)(=O)c2ccc(F)cc2)CC1,–,inactive
CSc1ccccc1NC(=O)CSc1n[nH]c(C)c1[N+](=O)[O-],–,inconclusive: -6.23%
Cc1ccc(-c2csc(N3CCN(c4cc5c(cc4Cl)nc(C)n5CCN4CCCCC4)CC3)n2)cc1,–,inconclusive: -27.2%
CC(C)CC(c1nnnn1CC1CCCO1)N1CCN(C2CCCC2)CC1 (configuration not stated),"inconclusive: 1.46 µM [falling, full curve, poor fit]",–

Compound,Potency,"lipid storage change, negative = inhibition"
CCc1cccc(CC)c1NC(=O)NC1CCCCC1,–,inconclusive: -2.06%
C[C@@H]1CN(C(=O)c2nc3ccc(Cl)cn3c2CN2CCc3sccc3C2)C[C@H](C)O1,–,inconclusive: -11.4%
COc1ccc(S(=O)(=O)Nc2cccnc2)cc1OC,–,inconclusive: -22.3%
CC(Oc1cccc(Cl)c1)C(=O)N1CCCN(C)CC1 (configuration not stated),–,inconclusive: 5.02%
Cc1ccccc1-c1ccc(=O)n(CC(=O)Nc2ccc(C(=O)N3CCCC3)cc2)n1,–,inconclusive: -23.4%
Clc1ccc(Nc2ccc(Cl)nn2)cc1,–,inconclusive: 0.727%
Cc1cccc(N(C(=O)c2snc(C(N)=O)c2N)C(C(=O)NCC2CCCO2)c2c[nH]c3ccccc23)c1 (configuration not stated),–,inconclusive: 21.5%
Cc1ccc(OCCSc2ncnc3nc[nH]c23)cc1,–,inconclusive: 189%
Cc1nc2ccccc2c(=O)n1/N=C/c1ccccc1OC(F)F,–,inconclusive: 5.83%
Cc1nnc(SCC(=O)NCC(=O)Nc2ccc(F)c(F)c2F)n1Cc1ccccc1,–,inconclusive: -8.05%
Cc1sc(NC(=O)C2CCCCC2C(=O)O)c(C(N)=O)c1C (configuration not stated),–,inconclusive: 7.76%
Cc1nc2ncccn2c1-c1csc(NCc2ccco2)n1,–,inconclusive: -77.4%
COCCCNC(=S)N(CCO)Cc1cc2cc3c(cc2[nH]c1=O)OCO3,"inconclusive: 25.9 µM [activator, single point]",–
CCn1c(=N)n(CC(=O)c2ccc(Cl)c(Cl)c2)c2ccccc21,–,inconclusive: -75.8%
CCNc1nc(Oc2ccc(OC)cc2)cc(C(F)(F)F)n1,"inconclusive: 23.1 µM [falling, single point]",–
O=C(CCc1nnc2n(Cc3ccccc3)c(=O)c3ccccc3n12)NCCCN1CCCCC1,"inconclusive: 4.61 µM [falling, full curve, poor fit]",–
CCSC1=C(C#N)C2(CCCCC2)C2=C(CC(C)(C)CC2=O)N1,–,inconclusive: 2.17%
Cc1cc(-c2nnc3n2N=C(c2ccccc2)CS3)n[nH]1,–,inconclusive: 4.08%
COc1ccccc1CNC(=O)c1ccc2c(=O)n(CC3CCCO3)c(=S)[nH]c2c1 (configuration not stated),–,inconclusive: -58.7%
CCCC(C(=O)NCCc1ccc(S(N)(=O)=O)cc1)c1ccccc1 (configuration not stated),–,inconclusive: 3.69%
NNC(=O)CSc1c(-c2ccccc2)c2cc(Cl)ccc2[nH]c1=O,–,inconclusive: 20.2%
COCCNC(=O)c1oc2ccc3c(c2c1C)C(O)CC(C)(C)O3 (configuration not stated),–,inconclusive: 33.3%
CCn1c(=S)sc2c(=O)n(CC(=O)NC(C)CCc3ccccc3)c(C)nc21 (configuration not stated),"inconclusive: 29.1 µM [activator, single point]",–
O=C(CSc1nnc(-c2ccco2)n1Cc1ccco1)Nc1ccccc1,"inconclusive: 1.64 µM [activator, partial curve]",–
COc1ccc(CCC(=O)Nc2cc([N+](=O)[O-])ccc2OC)cc1,"inconclusive: 2.59 µM [activator, partial curve]",–

# 4 of these compounds in another layout.
Compound | Potency | lipid storage change, negative = inhibition
Cc1cccc(N(C(=O)c2snc(C(N)=O)c2N)C(C(=O)NCC2CCCO2)c2c[nH]c3ccccc23)c1 (configuration not stated) | – | inconclusive: 21.5%
O=C(CCc1nnc2n(Cc3ccccc3)c(=O)c3ccccc3n12)NCCCN1CCCCC1 | inconclusive: 4.61 µM [falling, full curve, poor fit] | –
CCn1c(=S)sc2c(=O)n(CC(=O)NC(C)CCc3ccccc3)c(C)nc21 (configuration not stated) | inconclusive: 29.1 µM [activator, single point] | –
O=C(CSc1nnc(-c2ccco2)n1Cc1ccco1)Nc1ccccc1 | inconclusive: 1.64 µM [activator, partial curve] | –
